Measurements taken from publication doi:10.1101/2022.03.04.482948.

Target: FAM172A bait of the BioID2-based screen
Experiment: proximity labelling

binding: binds
B1: Nucleoporin NUP-155 (protein, UniProt Q99P88 1-1391)
chain: MPSVLGSMMVASTSAAASLQEALENAGRLIDRQLQEDRMYPDLSELLMVSAPNSPTVSGMSDMDYPLQGPGLLSVPSLPEISTIRRVPLPPELVEQFGHMQCNCMMGVFPPISRAWLTIDSDIFMWNYEDGGDLAYFDGLSETILAVGLVKPKAGIFQPHVRHLLVLATPVDIVILGLSYANVQTGSGILNDSMCGGMQLLPDPLYSLPTDNTYLLTITSTDNGRIFLAGKDGCLYEVAYQAEAGWFSQRCRKINHSKSSLSFLVPSLLQFTFSEDDPIVQIEIDNSRNILYTRSEKGVIQVYDLGHDGQGMSRVASVSQNAIVSAAGNIARTIDRSVFKPIVQIAVIESSESLDCQLLAVTHAGVRLYFSTCPFRQPLARPNTLTLVHVRLPPGFSASSTVEKPSKVHKALYSKGILLMTASENEDNDILWCVNHDTFPFQKPMMETQMTTRVDGHSWALSAIDELKVDKIITPLNKDHIPITDSPVVVQQHMLPPKKFVLLSAQGSLMFHKLRPVDQLRHLLVSNVGGDGEEIERFFKLHQEDQACATCLILACSTAACDREVSAWATRAFFRYGGEAQMRFPATLPTPSNVGPILGSPMYSSSPVPSGSPYPNPSSLGTPSHGAQPPTMSTPMCAVGSPAMQAASMSGLTGPEIVYSGKHNGICIYFSRIMGNIWDASLVVERVFKSSNREITAIESSVPVQLLESVLQELKGLQEFLDRNSQFSGGPLGNPNTTARVQQRLVGFMRPENGNTQQMQQELQRKFQEAQLSEKISLQAIQQLVRKSYQALALWKLLCEHQFSVIVGELQKEFQEQLKITTFKDLVIRDKEVTGALIASLINCYIRDNAAVDGISLHLQDTCPLLYSTDDAVCSKANELLQRSRQVQSKTERERMLRESLKEYQKISNQVDLPSVCAQYRQVRFYEGVVELSLTAAEKKDPQGLGLHFYKHGEPEEDVVGLQTFQERLNSYKCITDTLQELVNQSKAAPQSPSVPKKPGPPVLSSDPNMLSNEEAGHHFEQMLKLAQRSKDELFSIALYNWLIQADLADKLLQIASPFLEPHLVRMARVDQNRVRYMDLLWRYYEKNRSFSSAARVLSKLADMHSTEISLQQRLEYIARAILSAKSSTAISSIAADGEFLHELEEKMEVARIQLQIQETLQRQYSHHSSVQDAISQLDSELMDITKLYGEFADPFKLAECKLAVIHCAGYSDPILVHTLWQDIIEKELNDSVALSSSDRMHALSLKLVLLGKIYAGTPRFFPLDFIVQFLEQQVCTLNWDVGFVIQTMNEIGVPLPRLLEVYDQLFKSRDPFWNRVKSPLHLLDCIHVLLTRYVENPSLVLNCERRRFTNLCLDAVCGYLVELQSMSSSVAVQAITGNFKSLQAKLERLH

These are yes or no findings as the source states them, for the method shown. In cells and extracts the contact can be indirect. Here binding means that the protein was enriched with, or labelled near, the bait; the list need not be complete.
